# Source: PubChem BioAssay AID1347426 (Functional Genomics Laboratory (NCATS/FGL), 2020)
# Hit rate of the full screen: of about 31,000 sequences, about 1,400 (4.5%) were called active.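 Rule for the calls: active = median seed-adjusted z-score above 1 or below -1; inactive = the rest.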 The list shows a part of the results.
# Assay: Novel Modifiers of Survival Motor Neuron (SMN) Protein: Gene Identification via Genome-wide siRNA Screen;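 note: luminescence tracks full-length SMN protein made from the SMN2 reporter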
# Conditions: HEK293T SMN2-luciferase reporter, siRNA knockdown, 72 h; actives lie on both sides
# Procedure, shortened: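 siRNA screen, 10418 genes ×3 siRNAs; 1 pmol/well, lipid reverse transfection into HEK293T SMN2-luc reporter line. 72 h, 37 °C, 5% CO2; ONE-Glo readout. Data: neg-ctrl normalized, log10, MAD; hit = MAD >1.0 or < -1.0.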
row,Sequence,median seed-adjusted z-score
1,CUAGUGAUAUCUCCAAUUATT against REV3L,inactive: 0.062
2,GCUUCUCUGCUACGUCGUATT against MMD2,inactive: -0.0908
3,CUAAGAAACUCCAAUUUUATT against JAK3,inactive: -0.0926
4,GGAUAGAGGUUCGUUUGAATT against PRKG1,inactive: 0
5,GCCGACAUUUGGACACAGATT against HSPB2,inactive: 0.247
6,GGAUGAGAAGGAUAAUGAUTT against IRF6,active: -1.79
7,UGAGCUACAUAAAUUCCUATT against RAB22A,inactive: 0.321
8,CAACCACACUGUUGCUUUUTT against PLXNB2,inactive: -0.237
9,GAAACUCCGAGCGAUUUAATT against SHH,inactive: -0.517
10,CGCUAUCCAUUAAACAUCATT against RRH,inactive: -0.0112
11,CCUCAACCCUAAAUGGACATT against ZNF91,inactive: 0.105
12,CGAUGGACUAAGUAAUAUATT against KPNA4,inactive: 0.457
13,GAAUCUCGGCUUUAUGGAATT against SLC25A17,inactive: 0.0311
14,UGUAAUUUAUUGUUGCGUUTT against FZD9,inactive: -0.0532
15,AAAUCUCAAUGGUCGCUAUTT against FCN3,inactive: -0.112
16,CUAGACUUCUUACAAGACATT against PIP5K1A,inactive: 0.0924
17,CCCUAUCAGUUACUACUAATT against PDE6H,inactive: -0.0647
18,GGAAGAUGGUUGGGUGAAATT against PSMB8,inactive: 0
19,CUGUUACACCAGUAUCUGATT against KLF10,inactive: 0.616
20,UGUUCAGCAUAGUUGUUUUTT against SLC12A9,inactive: -0.0853
21,GCUUCAACGAGGACUUCAATT against P2RY2,inactive: 0.119
22,GAAUUCGCGUUUUCCGAUATT against PCDHA1,inactive: -0.013
23,GGAUUUCUGGGAAUAAUGUTT against TRIM35,inactive: -0.0463

# For reference, part of the list above.
row,Sequence,median seed-adjusted z-score
1,CUAGUGAUAUCUCCAAUUATT against REV3L,inactive: 0.062
2,GCUUCUCUGCUACGUCGUATT against MMD2,inactive: -0.0908
3,CUAAGAAACUCCAAUUUUATT against JAK3,inactive: -0.0926
4,GGAUAGAGGUUCGUUUGAATT against PRKG1,inactive: 0
5,GCCGACAUUUGGACACAGATT against HSPB2,inactive: 0.247
6,GGAUGAGAAGGAUAAUGAUTT against IRF6,active: -1.79
7,UGAGCUACAUAAAUUCCUATT against RAB22A,inactive: 0.321
8,CAACCACACUGUUGCUUUUTT against PLXNB2,inactive: -0.237
9,GAAACUCCGAGCGAUUUAATT against SHH,inactive: -0.517
10,CGCUAUCCAUUAAACAUCATT against RRH,inactive: -0.0112
11,CCUCAACCCUAAAUGGACATT against ZNF91,inactive: 0.105
12,CGAUGGACUAAGUAAUAUATT against KPNA4,inactive: 0.457
13,GAAUCUCGGCUUUAUGGAATT against SLC25A17,inactive: 0.0311
14,UGUAAUUUAUUGUUGCGUUTT against FZD9,inactive: -0.0532
15,AAAUCUCAAUGGUCGCUAUTT against FCN3,inactive: -0.112
16,CUAGACUUCUUACAAGACATT against PIP5K1A,inactive: 0.0924
17,CCCUAUCAGUUACUACUAATT against PDE6H,inactive: -0.0647
18,GGAAGAUGGUUGGGUGAAATT against PSMB8,inactive: 0
19,CUGUUACACCAGUAUCUGATT against KLF10,inactive: 0.616
20,UGUUCAGCAUAGUUGUUUUTT against SLC12A9,inactive: -0.0853
21,GCUUCAACGAGGACUUCAATT against P2RY2,inactive: 0.119

# Next part:

row,Sequence,median seed-adjusted z-score
1,CAAAGUUGGAUGAAGCUAATT against TNFAIP3,inactive: 0.11
2,CAUCCAAGCUGCUACAGAATT against ATP1A1,inactive: 0.271
3,GCCUGACUGUAACACCCAATT against TXN2,inactive: 0.87
4,AGGCUGGAUUGAUCUCCAATT against CBFB,inactive: -0.0379
5,GGGCAUUAUAAACAAUCUATT against C4BPA,inactive: 0.309
6,GGAGUAUGGUUGCUGUGGATT against TXNRD3,inactive: 0.69
7,GGAGAUUUGUCUACCAUGATT against GTF2B,inactive: -0.855
8,CGUCUAUACUUACAAGCUUTT against SF3B3,active: -2.53
9,GGACCUCCCUUCAACAUCATT against DYSF,inactive: -0.23
10,GAGCUAUGCUGUUAGGGUUTT against PRSS12,inactive: 0.119
11,CCCUAAAUAUUUGUAAGUUTT against THOC3,inactive: 0.689
12,GGCUAGACCUCACUACUAATT against FOXP2,inactive: 0.222
13,CAUCACCUAUUGGAUCCAATT against MMP9,active: -1.15
14,CCAUAAACGUGCUUUGAGATT against TIMM13,inactive: -0.422
15,GAGGCAGACAAAAACCUUUTT against CRTC1,inactive: 0.00363
16,GCCUCAAUCUCUACUCGAATT against PCDHGA2,inactive: -0.8
17,GAACCAUUCUGAGCGAGUUTT against F10,inactive: -0.0033
18,GGACAAUAACGUAGAGGAATT against MMP17,inactive: -0.653
19,GUCCGUGUCUUCUUCAAAATT against EPHB1,inactive: -0.0232
20,UGACAUCCGUGACCUCUAATT against LHX9,inactive: 0.157
21,CAGUGUAUCUGCAUUAGAATT against NOX4,inactive: -0.246
22,GAUUCUAGGAUAAGCACUATT against KLK8,inactive: 0.736
23,GAAGCGGAGUUUUACAACATT against KCTD2,inactive: 0.133

row,Sequence,median seed-adjusted z-score
1,GCAAAGAGAUUUUCAACAATT against EXOSC5,inactive: 0.109
2,GCCGGAUGAGAUUUCCAUATT against ITPA,inactive: 0.616
3,GCACUUUUCGAGGAGGAGATT against SLC12A7,inactive: -0.0309
4,ACUUCUACAUCAACGACAATT against ALDH4A1,inactive: 0.0362
5,AGAUAGAUGUGGUACCCAUTT against IL1RN,inactive: 0.283
6,CUAUCCAUAUGAACUAUGATT against SLC30A4,inactive: 0.158
7,GACUUUUCAGAGUCUUUCATT against NYX,inactive: 0.0685
8,GGUUGAAGCUUAUUGCAGATT against HARS2,inactive: 0
9,GGAAUUAUGGAAAAACUCUTT against NHLH1,inactive: -0.0084
10,GGCAGAUGAUGGUAUCACATT against CNGA4,inactive: 0.125
11,CAGUCAAGCAGUCAACAAATT against MAP1D,inactive: 0.155
12,GCGUCUCACUCAUUGCGUUTT against BAZ2B,inactive: -0.679
13,AGAAGAACGACGACCAAAATT against COMP,inactive: 0.331
14,CAAGUGUCACAUUCGCAAATT against GALR1,inactive: -0.721
15,GGAAAUUCAGGUACGGAUATT against ADAMTS4,inactive: -0.0153
16,CAGUUAUUCUCUCUCCAUATT against SDHC,inactive: 0.00895
17,GCACAGACCUGGUGUGGAATT against NECAB2,inactive: -0.286
18,UGGUGGAAAUUUCCCUUUATT against CDH16,inactive: -0.209
19,AACUCGUGUUGUUGAAAAATT against GATAD2A,inactive: -0.715
20,CAAUAUUCAGUAACCAAGUTT against ESM1,inactive: 0.141
21,AGGAGUCACUGCACAUUAATT against ZNF205,inactive: -0.468
22,GAAUCUGCCUGAUAAUCGATT against CFLAR,inactive: -0.413
